Assay results as given in article PMC10006225.
These are yes or no findings as the source states them, for the method shown. Binding seen in cells or lysates may run through a third protein. Some binding calls cover weakened binding; strength is not graded here.

Protein sequences, listed by entry. Tags and fused reporters are not part of them.
UniProt Q04206: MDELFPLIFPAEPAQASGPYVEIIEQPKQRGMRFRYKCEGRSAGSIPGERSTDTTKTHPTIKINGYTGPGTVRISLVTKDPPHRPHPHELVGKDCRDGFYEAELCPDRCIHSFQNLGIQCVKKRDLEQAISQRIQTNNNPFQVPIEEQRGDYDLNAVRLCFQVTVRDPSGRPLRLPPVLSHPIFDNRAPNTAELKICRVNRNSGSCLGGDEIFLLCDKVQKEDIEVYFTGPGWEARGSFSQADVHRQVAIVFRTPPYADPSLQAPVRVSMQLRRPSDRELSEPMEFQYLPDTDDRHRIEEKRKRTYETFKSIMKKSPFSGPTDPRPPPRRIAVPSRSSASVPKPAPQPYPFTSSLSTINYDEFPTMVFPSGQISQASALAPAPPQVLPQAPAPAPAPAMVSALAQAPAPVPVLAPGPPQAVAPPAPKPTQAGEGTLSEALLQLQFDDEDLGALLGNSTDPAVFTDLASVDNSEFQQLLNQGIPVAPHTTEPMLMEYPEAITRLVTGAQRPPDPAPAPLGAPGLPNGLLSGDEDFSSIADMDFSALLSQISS

T1: PTPN14-ΔPTP (deletion the PTP domain, 934–1187 amino acids) (UniProt Q15678)
T1 sequence: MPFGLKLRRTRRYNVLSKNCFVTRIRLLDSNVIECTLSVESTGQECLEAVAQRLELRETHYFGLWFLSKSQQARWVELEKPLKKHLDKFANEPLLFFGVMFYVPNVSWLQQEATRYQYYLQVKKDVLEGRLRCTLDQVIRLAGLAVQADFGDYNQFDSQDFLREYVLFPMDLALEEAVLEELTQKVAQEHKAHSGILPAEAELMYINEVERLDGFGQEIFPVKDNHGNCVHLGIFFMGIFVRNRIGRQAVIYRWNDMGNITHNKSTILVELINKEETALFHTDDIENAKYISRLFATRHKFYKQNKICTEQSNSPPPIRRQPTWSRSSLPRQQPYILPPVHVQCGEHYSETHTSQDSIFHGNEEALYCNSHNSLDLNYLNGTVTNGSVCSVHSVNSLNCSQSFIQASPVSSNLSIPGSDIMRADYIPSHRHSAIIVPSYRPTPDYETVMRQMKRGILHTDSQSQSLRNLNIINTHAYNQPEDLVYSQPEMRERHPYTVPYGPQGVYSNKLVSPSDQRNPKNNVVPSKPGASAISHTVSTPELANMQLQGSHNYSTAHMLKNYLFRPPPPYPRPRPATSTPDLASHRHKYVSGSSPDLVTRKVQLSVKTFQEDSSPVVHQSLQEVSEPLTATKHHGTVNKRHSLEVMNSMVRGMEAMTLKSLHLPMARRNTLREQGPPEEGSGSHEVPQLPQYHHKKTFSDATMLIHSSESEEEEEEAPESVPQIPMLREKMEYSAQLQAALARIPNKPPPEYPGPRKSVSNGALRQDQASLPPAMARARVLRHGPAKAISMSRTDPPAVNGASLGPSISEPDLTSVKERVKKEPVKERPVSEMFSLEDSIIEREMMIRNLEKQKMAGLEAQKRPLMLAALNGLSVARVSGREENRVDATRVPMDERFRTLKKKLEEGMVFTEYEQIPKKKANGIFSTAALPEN

T2: PTPN14 wild type (plasmid) (UniProt Q15678)
T2 sequence: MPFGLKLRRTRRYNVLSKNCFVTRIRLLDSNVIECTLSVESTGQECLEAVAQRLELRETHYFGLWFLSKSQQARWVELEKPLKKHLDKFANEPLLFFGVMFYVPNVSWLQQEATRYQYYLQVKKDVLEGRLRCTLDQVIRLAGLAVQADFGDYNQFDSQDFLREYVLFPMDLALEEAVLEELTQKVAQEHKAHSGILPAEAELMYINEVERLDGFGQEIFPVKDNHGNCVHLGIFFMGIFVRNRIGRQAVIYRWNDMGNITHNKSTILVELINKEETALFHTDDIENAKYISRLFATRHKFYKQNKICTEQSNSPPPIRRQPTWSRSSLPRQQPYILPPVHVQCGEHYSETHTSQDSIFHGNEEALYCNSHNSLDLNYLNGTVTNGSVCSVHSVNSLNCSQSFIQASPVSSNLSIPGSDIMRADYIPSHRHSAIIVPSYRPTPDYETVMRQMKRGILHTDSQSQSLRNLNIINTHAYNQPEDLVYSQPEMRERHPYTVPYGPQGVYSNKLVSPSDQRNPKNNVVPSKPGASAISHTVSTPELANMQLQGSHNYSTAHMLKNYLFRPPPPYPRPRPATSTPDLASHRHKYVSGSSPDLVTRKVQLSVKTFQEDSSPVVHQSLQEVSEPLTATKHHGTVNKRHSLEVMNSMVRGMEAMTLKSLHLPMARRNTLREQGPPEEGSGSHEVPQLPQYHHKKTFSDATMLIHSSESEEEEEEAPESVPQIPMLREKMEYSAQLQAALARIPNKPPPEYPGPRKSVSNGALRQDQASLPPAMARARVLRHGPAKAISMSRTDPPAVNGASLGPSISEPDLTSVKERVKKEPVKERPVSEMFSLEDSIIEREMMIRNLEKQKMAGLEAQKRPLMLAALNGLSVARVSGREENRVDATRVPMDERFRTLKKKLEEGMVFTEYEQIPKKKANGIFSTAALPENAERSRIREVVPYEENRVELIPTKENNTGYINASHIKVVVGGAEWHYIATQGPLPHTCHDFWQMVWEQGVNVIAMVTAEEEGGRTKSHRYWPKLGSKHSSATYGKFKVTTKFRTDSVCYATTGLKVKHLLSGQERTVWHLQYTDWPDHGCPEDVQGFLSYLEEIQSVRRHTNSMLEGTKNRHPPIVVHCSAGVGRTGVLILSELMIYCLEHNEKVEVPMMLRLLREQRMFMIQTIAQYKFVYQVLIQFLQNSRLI

T3: PTPN14 (UniProt Q15678)
T3 sequence: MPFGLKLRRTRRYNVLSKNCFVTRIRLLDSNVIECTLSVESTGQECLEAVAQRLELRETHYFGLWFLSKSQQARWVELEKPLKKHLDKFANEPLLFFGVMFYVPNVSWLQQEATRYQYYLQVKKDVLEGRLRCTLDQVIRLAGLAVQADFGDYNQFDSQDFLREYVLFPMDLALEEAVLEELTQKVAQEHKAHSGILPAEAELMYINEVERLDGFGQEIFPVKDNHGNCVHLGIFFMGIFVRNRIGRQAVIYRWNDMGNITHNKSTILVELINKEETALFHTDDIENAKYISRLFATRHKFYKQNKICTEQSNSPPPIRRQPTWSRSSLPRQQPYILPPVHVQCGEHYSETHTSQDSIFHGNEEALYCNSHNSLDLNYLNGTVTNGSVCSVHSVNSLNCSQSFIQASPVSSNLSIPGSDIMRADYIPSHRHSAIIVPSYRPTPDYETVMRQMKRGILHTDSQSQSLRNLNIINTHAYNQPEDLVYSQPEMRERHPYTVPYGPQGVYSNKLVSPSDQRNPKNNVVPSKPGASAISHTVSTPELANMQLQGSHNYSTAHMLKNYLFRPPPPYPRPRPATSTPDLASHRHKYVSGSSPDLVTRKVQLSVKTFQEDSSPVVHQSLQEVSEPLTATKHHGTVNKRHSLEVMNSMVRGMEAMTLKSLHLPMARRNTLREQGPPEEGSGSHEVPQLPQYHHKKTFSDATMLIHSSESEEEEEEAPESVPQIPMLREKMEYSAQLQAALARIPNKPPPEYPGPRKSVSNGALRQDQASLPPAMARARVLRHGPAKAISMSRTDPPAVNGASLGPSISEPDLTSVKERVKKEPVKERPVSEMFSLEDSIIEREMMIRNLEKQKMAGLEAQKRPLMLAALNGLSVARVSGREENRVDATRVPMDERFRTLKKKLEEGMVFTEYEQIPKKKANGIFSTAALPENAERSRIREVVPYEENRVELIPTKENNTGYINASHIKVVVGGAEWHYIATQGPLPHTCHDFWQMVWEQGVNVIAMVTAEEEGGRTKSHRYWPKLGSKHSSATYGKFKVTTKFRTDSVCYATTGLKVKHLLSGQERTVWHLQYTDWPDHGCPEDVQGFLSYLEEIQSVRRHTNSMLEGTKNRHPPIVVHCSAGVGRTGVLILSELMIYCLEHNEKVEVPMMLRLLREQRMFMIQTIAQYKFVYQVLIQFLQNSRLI


Legend:
[1] = molecular target: T1, PTPN14-ΔPTP (deletion the PTP domain, 934–1187 amino acids); assay: co-IP; Co-IP with PTPN14 wild type, truncated or mutated plasmids, NFkB detected by Western blot; cells and precipitating antibody not named
[2] = molecular target: T2, PTPN14 wild type (plasmid); assay: as above
[3] = molecular target: T3, PTPN14; assay: co-IP; immunoprecipitation with anti-PTPN14 antibody and Western blot for NFkB, and conversely with anti-NFkB antibody and blot for PTPN14; cells not named
[4] = molecular target: NFkB (nuclear factor Kappa B), p65 subunit (UniProt Q04206); assay: as above

| binding [1] | binding [2] | binding [3] | binding [4] | Molecule |
| --- | --- | --- | --- | --- |
| binds | binds | binds | – | NFkB (nuclear factor Kappa B), p65 subunit (from UniProt Q04206 1-551) |
| – | – | – | binds | PTPN14 (protein, UniProt Q15678 1-1187) MPFGLKLRRTRRYNVLSKNCFVTRIRLLDSNVIECTLSVESTGQECLEAVAQRLELRETHYFGLWFLSKSQQARWVELEKPLKKHLDKFANEPLLFFGVMFYVPNVSWLQQEATRYQYYLQVKKDVLEGRLRCTLDQVIRLAGLAVQADFGDYNQFDSQDFLREYVLFPMDLALEEAVLEELTQKVAQEHKAHSGILPAEAELMYINEVERLDGFGQEIFPVKDNHGNCVHLGIFFMGIFVRNRIGRQAVIYRWNDMGNITHNKSTILVELINKEETALFHTDDIENAKYISRLFATRHKFYKQNKICTEQSNSPPPIRRQPTWSRSSLPRQQPYILPPVHVQCGEHYSETHTSQDSIFHGNEEALYCNSHNSLDLNYLNGTVTNGSVCSVHSVNSLNCSQSFIQASPVSSNLSIPGSDIMRADYIPSHRHSAIIVPSYRPTPDYETVMRQMKRGILHTDSQSQSLRNLNIINTHAYNQPEDLVYSQPEMRERHPYTVPYGPQGVYSNKLVSPSDQRNPKNNVVPSKPGASAISHTVSTPELANMQLQGSHNYSTAHMLKNYLFRPPPPYPRPRPATSTPDLASHRHKYVSGSSPDLVTRKVQLSVKTFQEDSSPVVHQSLQEVSEPLTATKHHGTVNKRHSLEVMNSMVRGMEAMTLKSLHLPMARRNTLREQGPPEEGSGSHEVPQLPQYHHKKTFSDATMLIHSSESEEEEEEAPESVPQIPMLREKMEYSAQLQAALARIPNKPPPEYPGPRKSVSNGALRQDQASLPPAMARARVLRHGPAKAISMSRTDPPAVNGASLGPSISEPDLTSVKERVKKEPVKERPVSEMFSLEDSIIEREMMIRNLEKQKMAGLEAQKRPLMLAALNGLSVARVSGREENRVDATRVPMDERFRTLKKKLEEGMVFTEYEQIPKKKANGIFSTAALPENAERSRIREVVPYEENRVELIPTKENNTGYINASHIKVVVGGAEWHYIATQGPLPHTCHDFWQMVWEQGVNVIAMVTAEEEGGRTKSHRYWPKLGSKHSSATYGKFKVTTKFRTDSVCYATTGLKVKHLLSGQERTVWHLQYTDWPDHGCPEDVQGFLSYLEEIQSVRRHTNSMLEGTKNRHPPIVVHCSAGVGRTGVLILSELMIYCLEHNEKVEVPMMLRLLREQRMFMIQTIAQYKFVYQVLIQFLQNSRLI |
